For 1 substance, binding results are on record in paper PMC10933290.

Sequences of proteins named here, by UniProt entry; tags and fusion partners are left off.
UniProt P59941: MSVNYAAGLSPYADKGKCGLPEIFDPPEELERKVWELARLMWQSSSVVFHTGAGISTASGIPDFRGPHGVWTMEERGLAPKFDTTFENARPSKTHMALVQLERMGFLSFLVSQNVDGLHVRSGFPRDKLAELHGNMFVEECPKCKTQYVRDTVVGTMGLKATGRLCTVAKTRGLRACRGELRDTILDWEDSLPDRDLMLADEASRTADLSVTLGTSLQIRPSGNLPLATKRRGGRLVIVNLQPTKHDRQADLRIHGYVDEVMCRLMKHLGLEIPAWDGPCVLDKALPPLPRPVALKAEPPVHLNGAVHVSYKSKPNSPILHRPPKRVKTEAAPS
UniProt P53566: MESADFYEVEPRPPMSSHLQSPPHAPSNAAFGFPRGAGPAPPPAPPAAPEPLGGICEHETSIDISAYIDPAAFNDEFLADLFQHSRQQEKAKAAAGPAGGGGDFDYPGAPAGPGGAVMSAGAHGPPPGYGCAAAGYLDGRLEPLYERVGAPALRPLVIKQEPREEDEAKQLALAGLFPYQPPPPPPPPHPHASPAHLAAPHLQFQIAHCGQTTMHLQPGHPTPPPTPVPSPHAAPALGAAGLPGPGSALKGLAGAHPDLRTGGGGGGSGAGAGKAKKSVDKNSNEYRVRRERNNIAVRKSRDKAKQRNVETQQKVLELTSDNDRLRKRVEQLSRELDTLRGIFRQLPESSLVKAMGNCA

The target of the assay is Sirt6-GFP (UniProt P59941). In words: co-IP; lysates of 293T/17 cells expressing Sirt6-GFP and C/ebpα (induced 48 h); IP overnight at 4 °C with 2 μg antibody against Sirt6 or C/EBP alpha, protein A/G agarose beads, washed with 300 mM NaCl in lysis buffer; detected with antibodies of Sirt6 and C/ebpα.

No constants are given. Whether binding was seen depends on the method and setting. Binding seen in cells or lysates may run through a third protein. Some binding calls cover weakened binding; strength is not graded here.

In the case of C/ebpα (from UniProt P53566 1-359), the binding entry is listed as “binds”.
